Reference: US20090138988A1, “MODIFICATION OF PLANT DISEASE RESISTANCE” (priority 2007, published 2009)

test: GC-MS metabolite profiling of apoplastic fluid from NbSQS silenced and control plants; conditions: level in apoplastic fluid, SQS silenced vs control N. benthamiana

Row | Compound | Ratio (SQS/Control)
1 | OC[C@H]1O[C@H](O[C@H]2[C@H](O)[C@@H](O)C(O)O[C@@H]2CO)[C@H](O)[C@@H](O)[C@@H]1O (mixture of isomers) [Maltose] | 10.37
2 | O=C1CCCN1 [Pyrrolidinone] | 6.372
3 | O[C@@H]1[C@@H](O)[C@@H]2OC[C@@H](O2)[C@H]1O [1,6-Anhydroglucose] | 2.986
4 | NCCCCN [Putrescine] | 8.56
5 | O=C[C@H](O)[C@H](O)[C@H](O)CO [Ribose] | 7.348
6 | O=C[C@H](O)[C@@H](O)[C@H](O)[C@H](O)CO [D-(+)-Glucose] | 8.344
7 | O=C(O)C(O)C(O)C(=O)O (centres unmarked) [2,3-Dihydroxybutanedioic acid] | 6.185
8 | O=C(O)CC(=O)O [Malonic Acid] | 3.1365
9 | CN1CCCC1c1cccnc1 (centres unmarked) [Nicotine] | 5.367
10 | O=C(CO)[C@H](O)[C@@H](O)[C@H](O)CO [Sorbose] | 4.319
11 | O=C(O)C(O)CO (centres unmarked) [Propionic Acid, 2,3 Hydroxy] | 5.181
12 | Maltotriose | 6.467
13 | O=C(CO)[C@@H](O)[C@H](O)[C@H](O)CO [D-(−)-Fructose] | 4.982
14 | OC[C@@H](O)[C@H](O)[C@@H](O)CO [Xylitol] | 6.868
15 | OCC(O)CO [Glycerol] | 1.968
16 | OC[C@@H](O)[C@@H](O)CO [Erythritol] | 3.258
17 | O=C[C@H](O)[C@@H](O)[C@H](O)CO [Xylose] | 3.702
